# Experimental data: PMC12670160, “A drug-repurposing screen of FDA- and EMA-approved drugs identifies two NF-κB inhibitors active against eumycetoma” (Journal of Antimicrobial Chemotherapy, 2025)
# Where a name gives a salt, the structure may show the parent alone. In all, about 5,300 compounds went through this assay and about 130 (2.5%) showed an effect of 50% or more. The list shows a part of the results.
# Test system: M. mycetomatis strain mm55
# Conditions: primary screen, metabolic activity vs growth control; 96 h, 2 µM; inhibitor
row,SMILES,% viability [%]
1,"COc1cc(F)c(C(C)C)cc1-c1ccc(C(F)(F)F)cc1CN1C(=O)O[C@H](c2cc(C(F)(F)F)cc(C(F)(F)F)c2)[C@H]1C [ONC0004634, anacetrapib mk0859]",81.34
2,"COC(=O)c1ccc2c(c1)NC(=O)/C2=C(\Nc1ccc(N(C)C(=O)CN2CCN(C)CC2)cc1)c1ccccc1 [ONC0004600, nintedanib bibf 1120]",71.59
3,"C[C@@H]1O[C@@H](O[C@@H]2[C@@H](O)[C@H](OCCc3ccc(O)c(O)c3)O[C@H](CO)[C@H]2OC(=O)/C=C/c2ccc(O)c(O)c2)[C@H](O)[C@H](O)[C@H]1O [ONC0002049, verbascoside]",88.61
4,"O=C(O[C@@H]1Cc2c(O)cc(O)cc2O[C@@H]1c1cc(O)c(O)c(O)c1)c1cc(O)c(O)c(O)c1 [ONC0000967, epigallocatechin gallate]",65.75
5,"CC(C)C[C@H](NC(=O)CNC(=O)c1cc(Cl)ccc1Cl)B(O)O [ONC0004978, ixazomib mln2238]",104.5
6,"CCOC(=O)[C@H](CCc1ccccc1)N[C@@H](C)C(=O)N1[C@H](C(=O)O)C[C@H]2CCCC[C@@H]21 [ONC0004230, trandolapril]",76.93
7,"COc1cc2c(cc1OC)CC(=O)N(CCCN(C)C[C@@H]1Cc3cc(OC)c(OC)cc31)CC2 [ONC0004874, ivabradine hcl procoralan]",93.19
8,"CC(C)C1=C2[C@H]3CC[C@@H]4[C@@]5(C)CC[C@H](OC(=O)CC(C)(C)C(=O)O)C(C)(C)[C@@H]5CC[C@@]4(C)[C@]3(C)CC[C@@]2([C@@H](O)CN(CCN(C)C)Cc2ccc(Cl)cc2)CC1=O [ONC0001978, gsk2838232]",102.6
9,"C[C@@]1(c2cc(-c3cncnc3)c(F)cc2F)CCSC(N)=N1 [ONC0004881, ly2811376]",113.9
10,"C[C@H]1Oc2cc(cnc2N)-c2c(nn(C)c2C#N)CN(C)C(=O)c2ccc(F)cc21 [ONC0002431, lorlatinib]",99.33
11,"CCCN1CCN(c2ccc(C(=O)NC3(C(=O)NCC#N)CCCCC3)cc2)CC1 [ONC0001015, balicatib]",83.06
12,"CCc1ccc(/C=C/C(=O)Nc2ccc(C(C)=O)cc2)o1 [ONC0002689, heclin]",81.24
13,"C[C@H]1N=C(N(C)C)N=C(N)N1 [ONC0001178, imeglimin hydrochloride]",76.36
14,"Cc1cc(C)c(C2=NOC3C4CCC(C4)C23)c(C)c1 (centres unmarked) [ONC0000128, sn2]",78.29
15,"O=[N+]([O-])c1cccc2c(Br)n[nH]c12 [ONC0003082, 3bromo7nitroindazole]",81.41
16,CC(=O)Nc1ccc(C(=O)NC(C)(C)C)cc1 [ONC0002880],98.46
17,"O=C1NC(=O)[C@@H](c2cn3c4c(cccc24)CCC3)[C@@H]1c1c[nH]c2ccccc12 [ONC0001207, tivantinib]",98.39
18,"COc1ccccc1N1CCN(CCn2c(=O)[nH]c3c([nH]c4ccccc43)c2=O)CC1 [ONC0001608, 3mppi]",57.64
19,"CCc1cnn2c(NCc3ccc[n+]([O-])c3)cc(N3CCCC[C@H]3CCO)nc12 [ONC0005024, dinaciclib sch727965]",72.89
20,"Cn1c(=O)c2c(ncn2CCO)n(C)c1=O [ONC0001881, 7hydroxyethyltheophylline]",89.5

# Some of these compounds in order of length of the SMILES, rising.
row,SMILES,% viability [%]
16,CC(=O)Nc1ccc(C(=O)NC(C)(C)C)cc1 [ONC0002880],98.46
15,"O=[N+]([O-])c1cccc2c(Br)n[nH]c12 [ONC0003082, 3bromo7nitroindazole]",81.41
10,"C[C@H]1Oc2cc(cnc2N)-c2c(nn(C)c2C#N)CN(C)C(=O)c2ccc(F)cc21 [ONC0002431, lorlatinib]",99.33

# Additional records

row,SMILES,% viability [%]
1,"CC(C)(CO)Cc1cc(C(C)(C)C)c(O)c(C(C)(C)C)c1 [ONC0002518, cgp7930]",66.25
2,"CCN(CC)CCCCC(NC(=O)c1ccc([N+](=O)[O-])cc1)c1ccccc1 (centres unmarked) [ONC0005365, nibentan]",124
3,"CCCCCCCCCCCCCCSCC(=O)O [ONC0003482, tetradecylthioacetic acid]",58.48
4,"CC(C)C(=O)c1ccc(O)c(O)c1 [ONC0002148, u0521]",93.35
5,"CC(C)NCC(O)COc1cccc2[nH]c3ccccc3c12 (centres unmarked) [ONC0003856, carazolol]",68.8
6,"CCCn1cnc2c1c(=O)n(CCCCC(C)=O)c(=O)n2C [ONC0001954, propentofylline]",88.77
7,"CC(C)NCC(O)c1cc(O)cc(O)c1 (centres unmarked) [ONC0000486, metaproterenol]",64.38
8,"CN1CCc2cc3c(cc2C1O)OCO3 (centres unmarked) [ONC0003326, hydrastinine hydrochloride]",65.88
9,"CCCCCCCCCCCCCCCCCCCCCC(=O)Nc1ccn([C@@H]2O[C@H](CO)[C@@H](O)[C@@H]2O)c(=O)n1 [ONC0003930, enocitabine]",67.51
10,"COCC(=O)O[C@]1(CCN(C)CCCc2nc3ccccc3[nH]2)CCc2cc(F)ccc2[C@@H]1C(C)C [ONC0004474, mibefradil]",133.5
11,"O=C(O)CCCCC1CCSS1 (centres unmarked) [ONC0002415, thioctic acid]",97.93
12,"CCN(CC)Cc1cc(Nc2ccnc3cc(Cl)ccc23)ccc1O [ONC0003211, amodiaquine dihydrochloride]",130.2
13,"CCN(CC)S(=O)(=O)c1ccc(C(=O)O)cc1 [ONC0004305, etebenecid]",97.53
14,"Cc1cc(C)nc(SCC(=O)Nc2ncc(Cc3cccc4ccccc34)s2)n1 [ONC0002711, sirreal2]",67.76
15,"CCc1c(C(=O)C(N)=O)c2c(OCC(=O)O)cccc2n1Cc1ccccc1 [ONC0004708, varespladib ly315920]",129.5
16,"Oc1cc2c(c(Cl)c1O)CCNCC2c1ccccc1 (centres unmarked) [ONC0001533, skf81297]",94.78
17,"CCC(=O)OCC(=O)[C@@]1(OC(=O)CC)[C@@H](C)C[C@H]2[C@@H]3CCC4=CC(=O)C=C[C@]4(C)[C@@]3(Cl)[C@@H](O)C[C@@]21C [ONC0003210, beclomethasone dipropionate]",77.88
18,"CN(C)c1ccccc1CN1CCCN(Cc2ccccc2N(C)C)C1c1ccncc1 [ONC0001644, gant61]",87.94
19,"O=c1c2ccccc2nc2n1CCc1c-2[nH]c2ccccc12 [ONC0004955, rutaecarpine rutecarpine]",80.68
20,"COc1ccc2[nH]c(C(=O)c3ccccc3)cc2c1 [ONC0001898, d64131]",78.99

row,SMILES,% viability [%]
1,"O=C(/C=C/C=C/c1ccc2c(c1)OCO2)N1CCCCC1 [ONC0003227, piperine]",80.79
2,CCNCC(O)c1cccc(O)c1 (centres unmarked) [ONC0003685],42.26
3,"CN(C)CCCn1cc(C2=C(c3c[nH]c4ccccc34)C(=O)NC2=O)c2ccccc21 [ONC0000937, gf109203x]",73.54
4,"OC[C@H]1O[C@H](O[C@H]2O[C@H](CO)[C@@H](O)[C@H](O)[C@H]2O)[C@H](O)[C@@H](O)[C@@H]1O [ONC0003487, trehalose]",42.59
5,"COc1cccc(-c2cc(F)ccc2[C@H]2Cc3nc(N)nc(C)c3C(=O)N2)n1 [ONC0002239, nvphsp990]",94.43
6,"COc1nc(N)nc2c1ncn2[C@@H]1O[C@H](CO)[C@@H](O)[C@@H]1O [ONC0004500, nelarabine arranon]",60.78
7,"CC(C)S(=O)(=O)NC[C@H](C)c1ccc(-c2ccc(CCNS(C)(=O)=O)cc2)cc1 [ONC0000792, mibampator]",65.07
8,"COc1ccccc1N1CCN(CCCNc2cc(=O)n(C)c(=O)n2C)CC1 [ONC0003152, urapidil hydrochloride]",75.54
9,"CC(C)(O)CS(=O)(=O)Nc1ccc2c(c1)CCN(C(=O)COc1cccnc1)C2 [ONC0000777, namptin1]",80.8
10,"CN/C(=N\c1ccc(C2=NNC(=O)CC2C)cc1)NC#N (centres unmarked) [ONC0000865, siguazodan]",68.34
11,"C[C@H](CCC(=O)NCCS(=O)(=O)O)[C@H]1CC[C@H]2[C@@H]3[C@@H](O)C[C@@H]4C[C@H](O)CC[C@]4(C)[C@H]3CC[C@]12C [ONC0003514, tauroursodeoxy cholic acid dihydrate]",70.98
12,"c1cn2cc(-c3ccc4cn[nH]c4c3)nc(Nc3ccc(N4CCOCC4)cc3)c2n1 [ONC0005145, entospletinib gs9973]",86.27
13,"O=C(O)c1ccc(N2N=C(Cc3ccccc3)/C(=C\c3ccc(-c4ccccc4F)o3)C2=O)cc1 [ONC0003538, gs143]",106.5
14,"O=C1[C@@H]2[C@H]3CC[C@H](C3)[C@@H]2C(=O)N1CCCCN1CCN(c2ncccn2)CC1 [ONC0001044, tandospirone]",100.2
15,"O=C1NCCN1CCN1CCC(c2cn(-c3ccc(F)cc3)c3ccc(Cl)cc23)CC1 [ONC0002313, sertindole]",104.8
16,"O=C(Nc1ccc(N2CCC(C(=O)N3CCOCC3)CC2)cc1)c1cnc(Oc2ccccc2)nc1 [ONC0003536, tfc007]",114.7
17,"O=C1CCC(N2C(=O)c3ccccc3C2=O)C(=O)N1 (centres unmarked) [ONC0003095, thalidomide]",66.77
18,"CN[C@@H](CCCNC(=N)N)C(=O)O [ONC0002691, lmonomethylarginine]",94.49
19,"CCCN(CCC)C(=O)C(CCC(=O)OCCCN1CCN(CCOC(=O)Cc2c(C)n(C(=O)c3ccc(Cl)cc3)c3ccc(OC)cc23)CC1)NC(=O)c1ccccc1 (centres unmarked) [ONC0003297, proglumetacin]",71.67
